The record followed here is article PMC5771398, “Structural basis for assembly of the CBF3 kinetochore complex” (The EMBO Journal, 2017).

Construct, isoform or probe ends are uncertain for at least one entry. No signal at the amounts used counts as a negative. At least one verdict rests on a figure or table, not on a statement of the authors.

The subject of this data set is Cep3 (wild type, core complex) + Ctf13 + Skp1 (wild type). In words: EMSA. As to conditions: EMSA: complex (final buffer 10 mM HEPES, 300 mM NaCl, 1 mM DTT) mixed with DNA, 200 units lambda phosphatase and 1 mM MnCl2, 30 C 30 min, 0.8% agarose gel in TBE, recombinant protein. (In EMSA bound probe runs differently from free probe, usually more slowly.)

Regarding “TATTAGTGTATTTGATTTCCGAAAGTTAAAAAAGAAATAGTAAGAAATATATATTT (double strand) [56 bp WT CEN3]”, where the note is “no lambda phosphatase (phosphorylated Skp1)”, the binding result is recorded as “no binding”.
As to “AAATATTAGTGTATTTGATTTCCGAAAGTTAAA (double strand) [33 bp wild-type CEN3, FAM-labelled]”, for the setting “0.7 uM complex, 0.1 uM labelled DNA”, the binding result is given as “binds”.
